Record: PubChem BioAssay AID686943 (Drosophila RNAi Screening Center, 2013)
Screen: 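Knockdowns that increase or decrease active ERK after insulin receptor stimulation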 (primary screen). Cells: Drosophila S2R+ haemocyte-like cells expressing YFP-tagged ERK (Rolled). Reagent: long dsRNA against Drosophila genes. Treatment: insulin stimulation versus unstimulated cells; dose and duration not given. Detection: 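Per-plate z-scores of phospho-ERK immunostaining normalised to YFP-tagged ERK, measured with and without insulin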. Direction: replicate 1, z-score of dpERK with insulin and replicate 2, z-score of dpERK with insulin: higher = more active ERK per ERK-YFP after insulin; replicate 1, z-score of dpERK under basal conditions: higher = more basal active ERK per ERK-YFP; replicate 1, z-score of ERK-YFP with insulin: higher = more YFP-tagged ERK signal.
The deposit covers about 23,000 reagents; this is an unselected part of those with a known target gene and a result. 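Extra replicates exist only for a retested subset of genes; insulin dose and duration not given; both raised and lowered dpERK matter.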 The record does not give: the amount of reagent, the time to read-out.

no.	gene	DRSC id	replicate 1, z-score of dpERK with insulin	replicate 2, z-score of dpERK with insulin	replicate 1, z-score of dpERK under basal conditions	replicate 1, z-score of ERK-YFP with insulin
1	Tdg	DRSC17119	0.02	0.61	0.5	0.76
2	Tdg	DRSC17169	0.12	0.47	-0.62	0.14
3	CG42553	DRSC08356	0.25	-0.49	-0.11	0.2
4	Trissin	DRSC14994	-0.23	-0.66	-0.33	0.28
5	CG11178	DRSC19396	0.56	0.28	0.79	-0.17
6	drongo	DRSC00814	-0.66	0.65	0.19	0.12
7	CG34367	DRSC02238	0.31	-0.27	0.79	1.01
8	CG34367	DRSC02850	-0.86	-0.51	-0.15	0.56
9	Vm26Aa	DRSC03472	-0.32	0.01	-0.76	0.81
10	Jhbp7	DRSC14408	0.12	-0.16	0.28	-0.43
11	Dsk	DRSC12347	-0.51	-0.23	0.31	0.93
12	Nrx-1	DRSC16184	0.03	0.18	0.54	-0.25
13	CG4101	DRSC10400	0.75	1.4	0.43	-0.58
14	CG10428	DRSC02054	-0.07	0.14	0.39	0.35
15	CG7634	DRSC11843	0.23	0.87	0.1	0.1
16	KFase	DRSC03258	0.39	-0.51	0.84	-0.36
17	ScsbetaG	DRSC11294	-0.29	0.45	1.11	0.73
18	Gs2	DRSC20250	-0.51	-0.19	-0.07	0.48
19	Mon1	DRSC00336	-0.27	-0.54	0.62	0.15
20	milt	DRSC00965	1.33	0.1	1.96	-0.56
21	milt	DRSC00966	1.09	0.77	1.17	-0.55
22	milt	DRSC02281	0.74	0.34	0.27	-0.1
23	Trim9	DRSC02242	-0.28	0.16	-0.46	1.01
24	Vm34Ca	DRSC03475	0.7	0.19	-0.39	-2.27
25	CG14740	DRSC14960	0.41	0.26	-0.24	0.41
26	Gpdh2	DRSC04346	-0.23	-0.07	-0.64	0.18
27	CG15459	DRSC20530	0.56	0.01	-0.57	0.11
28	CG15459	DRSC21383	-0.31	0.88	-0.54	-0.92
29	Rab14	DRSC03403	-0.66	-0.09	-0.53	1.51
30	Or88a	DRSC16770	-0.06	0	0.43	0.8
31	ppk10	DRSC01123	-0.89	-0.07	-1.31	0.47
32	CG14712	DRSC14935	0.65	1.2	5.98	-3.79
33	alpha-Spec	DRSC08704	-1.1	-1.18	1.25	0.64
34	CG32988	DRSC02692	1	0.12	0.2	-0.66
35	CAH3	DRSC17776	-0.36	-0.04	0.19	-0.74
36	CG1146	DRSC08189	0.15	0.67	0.41	0.14
37	Ref1	DRSC12497	-0.13	1.77	-0.54	0.14
38	Ref1	DRSC22387	1.01	1.99		-0.17
39	Twdlalpha	DRSC19914	-1.41	-1.4	0.11	1.71
40	CG34355	DRSC13639	0.91	0.24	1.89	-0.06
41	CG34355	DRSC14520	0.11	-0.09	-0.17	0.1
42	CG34355	DRSC14668	1.24	0.14	0.45	-0.14
43	CG34355	DRSC21687	1.1	0.47	1.62	0.06
44	glob2	DRSC12560	-1.25	0.77	-1.14	0.48
45	CG3746	DRSC04412	-0.16	0.75	0.4	0.49
46	Hacd2	DRSC03181	0.23	0.72	-0.16	0.38
47	cwo	DRSC17072	-0.8	-0.64	1.58	0.85
48	cyc	DRSC11337	-0.06	0.9	-0.55	-0.29
49	Lapsyn	DRSC04249	0.39	0.46	-0.17	0.68
50	CG14881	DRSC15005	0.2	0.5	-1.18	-0.89
51	CG31826	DRSC03357	-0.47	-0.03	-1.02	0.76
52	Gr10a	DRSC18897	1.4	2.14	0.57	-0.65
53	Gr10a	DRSC22792	0.25	-0.01	0.78	-0.55
54	Tim17a1	DRSC14184	0.47	0.52	0.75	0.18
55	CG8834	DRSC07283	0.05	-0.18	0.11	0.38
56	twit	DRSC03210	0.34	0.33	0.54	0.92
57	CG12768	DRSC11680	-1.47	-0.67	0.64	1.13

No new results follow: entries from further up.
no.	gene	DRSC id	replicate 1, z-score of dpERK with insulin	replicate 2, z-score of dpERK with insulin	replicate 1, z-score of dpERK under basal conditions	replicate 1, z-score of ERK-YFP with insulin
17	ScsbetaG	DRSC11294	-0.29	0.45	1.11	0.73
18	Gs2	DRSC20250	-0.51	-0.19	-0.07	0.48
19	Mon1	DRSC00336	-0.27	-0.54	0.62	0.15
20	milt	DRSC00965	1.33	0.1	1.96	-0.56
21	milt	DRSC00966	1.09	0.77	1.17	-0.55
22	milt	DRSC02281	0.74	0.34	0.27	-0.1
23	Trim9	DRSC02242	-0.28	0.16	-0.46	1.01
24	Vm34Ca	DRSC03475	0.7	0.19	-0.39	-2.27
